Laboratory results from PubChem BioAssay AID720504 (National Center for Advancing Translational Sciences (NCATS), 2013).
The whole screen tested about 360,000 compounds, of which about 10,000 (2.8%) were called active. The shares of active, inactive and inconclusive entries below differ from those in the screen. The call rests on the fitted dose curve; in most records, active means well fitted inhibition curve with a large enough effect; inconclusive means small, poorly fitted or top-dose-only effect; inactive means flat fitted curve, though single readings scatter. Potencies beside an inconclusive call are fits to weak or partial responses and may not hold up.

By UniProt entry, the sequences of proteins in these tests, tags left out.
UniProt P53350, whole entry, looked up: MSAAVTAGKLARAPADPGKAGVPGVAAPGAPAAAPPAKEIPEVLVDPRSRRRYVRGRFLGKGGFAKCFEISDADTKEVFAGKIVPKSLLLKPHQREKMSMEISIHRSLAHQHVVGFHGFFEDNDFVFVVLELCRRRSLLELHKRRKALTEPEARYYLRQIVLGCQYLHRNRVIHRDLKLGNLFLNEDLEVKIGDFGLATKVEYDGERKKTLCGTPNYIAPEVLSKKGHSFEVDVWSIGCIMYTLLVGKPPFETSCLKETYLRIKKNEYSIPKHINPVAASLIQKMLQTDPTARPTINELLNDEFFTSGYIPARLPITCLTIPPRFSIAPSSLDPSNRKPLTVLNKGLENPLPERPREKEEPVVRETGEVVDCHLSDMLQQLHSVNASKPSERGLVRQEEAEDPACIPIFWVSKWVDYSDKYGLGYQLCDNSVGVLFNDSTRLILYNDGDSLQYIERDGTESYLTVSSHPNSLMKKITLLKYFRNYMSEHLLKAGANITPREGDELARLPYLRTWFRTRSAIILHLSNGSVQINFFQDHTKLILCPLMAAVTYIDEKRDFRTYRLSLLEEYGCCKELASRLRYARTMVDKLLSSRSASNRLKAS

Target: Serine/threonine-protein kinase PLK1 (Homo sapiens) (UniProt P53350)
Test: qHTS for Inhibitors of PLK1-PDB (polo-like kinase 1 - polo-box domain): Primary Screen; further: nearly all actives have a fitted effect of over 65% in size; on max response, negative = inhibition: series mostly up to about 57 µM
Conditions: Plk1 PBD binding of FITC phosphopeptide, fluorescence polarization
On the % scale 0 is the no-effect control and ±100 the full control effect; potency means the concentration at half of the fitted maximal effect.

`COc1ccc2cc(C#N)c(NC(C)C)nc2c1` was tested. Which Potency did it give?
The Potency was inconclusive: 26.7 µM [inhibitor, single point].

Which max response, negative = inhibition does the source give for `C/C(CC(=O)NC12CC3CC(CC(C3)C1)C2)=N\NC(=O)Cc1cccs1` here?
Its max response, negative = inhibition is inactive: -9.01%.

Which Potency does the source give for `CC(C)(C)c1ccc(S(=O)(=O)NC(=O)C2(C)CCN2C(=O)Cc2ccc(-c3ccccc3)cc2)cc1` (stereo not given) here?
Its Potency is inconclusive: 29.9 µM [inhibitor, single point].

`COC(=O)c1ccccc1NC(=O)N1CCN(c2ccc(OC)cc2)CC1` was tested. Which max response, negative = inhibition did it give?
Its max response, negative = inhibition is inactive: -5.61%.

For `CCc1ccc(NC(=O)CNC(=O)[C@@H]2Cc3ccccc3CN2)cc1`, which max response, negative = inhibition is on record?
The max response, negative = inhibition was inconclusive: -5.46% [inhibitor].

With `Cc1ccc(S(=O)(=O)N2CCOCC2)cc1C(=O)N1CCC(Cc2ccccc2)CC1` as the compound, how does the max response, negative = inhibition read?
Its max response, negative = inhibition is inactive: -4.29%.

Which Potency does the source give for `O=C(Oc1ccccc1C(=O)Nc1ccccc1)c1ccc(Br)c([N+](=O)[O-])c1` here?
The Potency was inconclusive: 6.7 µM [inhibitor, partial curve].

For `COc1ccccc1NS(=O)(=O)c1cc(C(=O)N2CCCCCC2)ccc1C`, which max response, negative = inhibition is on record?
Its max response, negative = inhibition is inconclusive: -32.4% [inhibitor].

`CC(=O)c1ccc(NC(=O)Cn2cnc(S(=O)(=O)N3CCC(C)CC3)c2)cc1` was tested. Which Potency did it give?
Its Potency is active: 29.9 µM.

Which Potency does the source give for `Cc1ccc(C(c2nnnn2C2CCCC2)N2CCN3CCCC3C2)cc1` (stereo not given) here?
The Potency was inconclusive: 21.2 µM [inhibitor, partial curve].

`C=CCOc1ccc(-c2nc3c(c(=O)[nH]c(=O)n3Cc3ccccc3)n2CCCOC)cc1` was tested. Which Potency did it give?
The Potency was inconclusive: 21.2 µM [inhibitor, single point].

For `Cc1ccc(-n2nc(C)c(Sc3ccccc3[N+](=O)[O-])c2N)cc1`, which Potency is on record?
Its Potency is active: 2.38 µM.

`Cc1nn(-c2ccccc2)c(C)c1C(=O)OCC(=O)NC(=O)NC1CCCCC1` was tested. Which Potency did it give?
Its Potency is active: 21.2 µM.

`Cc1ccc(C=C2SC(=S)N(CCCC(=O)Nc3cccc(C(=O)O)c3)C2=O)cc1` was tested. Which Potency did it give?
The Potency was inconclusive: 23.8 µM [inhibitor, single point].

`COc1ccc(-c2[nH]nc3c2C(c2ccsc2)C(C#N)=C(N)O3)cc1` (stereo not given) was tested. Which max response, negative = inhibition did it give?
The max response, negative = inhibition was inconclusive: -32.8% [inhibitor].

`CC(C)(C)c1ccc(/C=N/n2cnnc2)cc1` was tested. Which Potency did it give?
The Potency was inconclusive: 23.8 µM [inhibitor, single point].

For `CSc1nnc(SCC(=O)NC(=O)c2ccccc2)s1`, which max response, negative = inhibition is on record?
The max response, negative = inhibition was inactive: -1.05%.

How did the Potency turn out when `COC(=O)c1cc(Br)c(=O)n(-c2ccc(F)cc2)c1` was run?
Its Potency is inconclusive: 29.9 µM [inhibitor, partial curve].

For `O=C(O)c1ccc(COc2ccccc2/C=C2\NC(=O)N(Cc3ccc(F)cc3)C2=O)cc1`, which Potency is on record?
The Potency was active: 67 µM.

`NS(=O)(=O)c1ccc(NC(=S)N2CCC(O)CC2)cc1` was tested. Which Potency did it give?
The Potency was inconclusive: 18.9 µM [inhibitor, partial curve].

How did the Potency turn out when `CC(=O)OCC1=C(C(=O)O)N2C(=O)C(NC(=O)c3ccc(COc4cccc(Cl)c4Cl)o3)C2SC1` (stereo not given) was run?
The Potency was inconclusive: 23.8 µM [inhibitor, partial curve].

For `S=c1[nH]nc(-c2cccs2)n1/N=C/c1c(Cl)cccc1Cl`, which Potency is on record?
The Potency was active: 6.7 µM.

Which Potency does the source give for `O=C(/C=C/c1ccc([N+](=O)[O-])cc1)c1cccnc1` here?
The Potency was inconclusive: 29.9 µM [inhibitor, partial curve].

How did the Potency turn out when `Cc1sc2nc(CSCC(=O)N(C)CC(=O)Nc3ccc(F)cc3)[nH]c(=O)c2c1C` was run?
The Potency was inconclusive: 23.8 µM [inhibitor, partial curve].

Which Potency does the source give for `O=C(c1cccc2nc3ccccc3nc12)N1CCOCC1` here?
The Potency was inconclusive: 26.7 µM [inhibitor, single point].

For `CC(NC(=O)c1ccco1)C(=O)O` (stereo not given), which Potency is on record?
The Potency was inconclusive: 37.7 µM [inhibitor, single point].

For `CCCCCCNc1nc(-c2ccc(OC)cc2)c(CCC(=O)O)s1`, which Potency is on record?
Its Potency is inconclusive: 37.7 µM [inhibitor, single point].

With `Cc1ccc(/C=C2\C(=O)Nc3ccccc32)o1` as the compound, how does the max response, negative = inhibition read?
Its max response, negative = inhibition is inactive: -18.8%.

`C=CCn1cccc(C(=O)Nc2cc(OC)c(OC)c(OC)c2)c1=O` was tested. Which Potency did it give?
Its Potency is active: 21.2 µM.

With `S=c1[nH]nc(-c2cccnc2)n1/N=C/c1ccc(Br)s1` as the compound, how does the Potency read?
The Potency was inconclusive: 6.7 µM [inhibitor, partial curve].

`O=C(O)/C=C\C(=O)Nc1ccc(N2CCN(c3ccc(Cl)c(Cl)c3)CC2)cc1` was tested. Which Potency did it give?
The Potency was inconclusive: 29.9 µM [inhibitor, partial curve].

Which Potency does the source give for `O=S(=O)(Nc1nc2ccccc2nc1N1CCN(c2ccccn2)CC1)c1ccc(Cl)cc1` here?
The Potency was inconclusive: 21.2 µM [inhibitor, single point].

With `O=C(O)Cc1sc(NCc2ccco2)nc1-c1ccccc1` as the compound, how does the Potency read?
Its Potency is inconclusive: 15 µM [inhibitor, partial curve].

With `C/C=C/c1ccc(O)c(OC)c1` as the compound, how does the max response, negative = inhibition read?
Its max response, negative = inhibition is inconclusive: -31.6% [inhibitor].

How did the max response, negative = inhibition turn out when `Cc1cc(C(=O)C(=O)N(C)C)c(C)n1-c1ccc(Cl)cc1` was run?
The max response, negative = inhibition was inactive: -5.1%.

Which max response, negative = inhibition does the source give for `Cc1cccc2c1-c1sc(C(=O)N3CCc4ccccc4C3)cc1CO2` here?
The max response, negative = inhibition was inactive: -10.8%.

For `CCOc1ccc(C2C=C(c3ccc(C)cc3)Nc3nnnn32)cc1` (stereo not given), which Potency is on record?
The Potency was active: 26.7 µM.

How did the max response, negative = inhibition turn out when `Cc1cc(C)cc(NC(=O)c2nccnc2C(=O)O)c1` was run?
The max response, negative = inhibition was inactive: -13.5%.

Which max response, negative = inhibition does the source give for `COc1ccc(C(=O)Nc2ccccc2N2CCN(C(=O)c3ccccc3)CC2)cc1Br` here?
Its max response, negative = inhibition is inactive: -3.38%.

For `COc1ccc(/C(O)=C2\C(=O)C(=O)N(CCN(C)C)C2c2cccc(OC)c2OC)cc1Cl` (stereo not given), which Potency is on record?
Its Potency is inconclusive: 26.7 µM [inhibitor, single point].

How did the max response, negative = inhibition turn out when `Cc1ccc(C(=O)NCCCNCCCN(C)C)cn1` was run?
The max response, negative = inhibition was inactive: -2.29%.

Which Potency does the source give for `Cc1ccc(N(CN2C(=O)NC(C)(C)C2=O)CN2C(=O)NC(C)(C)C2=O)cc1` here?
Its Potency is inconclusive: 21.2 µM [inhibitor, single point].

How did the Potency turn out when `COc1ccccc1CNC(=O)C(=O)NCC1OCCN1S(=O)(=O)c1cccs1` (stereo not given) was run?
Its Potency is inconclusive: 8.44 µM [inhibitor, single point].

How did the Potency turn out when `O=[N+]([O-])c1ccc(/C=N/NS(=O)(=O)c2ccc(Cl)cc2)o1` was run?
The Potency was inconclusive: 23.8 µM [inhibitor, partial curve].

For `C#CCOCCOCCOCCNc1nc(N2CCN(C(=O)CCCCCCCCCCNC(=O)[C@H](CCC(=O)O)n3cc(CCCCCN)nn3)CC2)nc(N2CCN(C(=O)CCCCCCCCCCNC(=O)[C@@H]([C@H](C)O)n3cc(C)nn3)CC2)n1`, which max response, negative = inhibition is on record?
Its max response, negative = inhibition is inactive: -14.1%.

For `CCOc1cc(C(=O)NCCN2C(=O)S/C(=C\c3cccnc3)C2=O)cc(OCC)c1OCC`, which Potency is on record?
Its Potency is inconclusive: 8.44 µM [inhibitor, full curve].

For `CCOc1ccc(N(C)S(=O)(=O)c2c[nH]c(C(=O)OC)c2)cc1`, which max response, negative = inhibition is on record?
Its max response, negative = inhibition is inactive: 4.79%.

`CCC(C)NC(=O)C1CCN(S(=O)(=O)N2CCC3(CC2)OCCO3)CC1` (stereo not given) was tested. Which Potency did it give?
The Potency was inconclusive: 26.7 µM [inhibitor, single point].

`O=[N+]([O-])c1ccc(N/N=C/c2cccc(O)c2O)cc1` was tested. Which Potency did it give?
The Potency was active: 26.7 µM.

Which max response, negative = inhibition does the source give for `O=C(c1ccc2nc[nH]c2c1)N1CCN(c2ncc(C(F)(F)F)cc2Cl)CC1` here?
Its max response, negative = inhibition is inactive: -0.834%.

For `CCOC(=O)c1cc(OC(=O)c2ccccc2)n(-c2ccccc2)n1`, which Potency is on record?
The Potency was inconclusive: 23.8 µM [inhibitor, partial curve].

For `COc1ccc(C2CC(=O)c3ccccc3O2)cc1` (stereo not given), which Potency is on record?
The Potency was inconclusive: 37.7 µM [inhibitor, single point].

With `CCOC(=O)c1c(NC(=O)CSc2nnc(CNc3ccc(OC)cc3)n2C)sc(C)c1C` as the compound, how does the Potency read?
The Potency was inconclusive: 21.2 µM [inhibitor, partial curve].

`Cc1cccc(C(=O)Nc2sc(-c3ccccc3)cc2C(=O)O)c1` was tested. Which Potency did it give?
Its Potency is inconclusive: 29.9 µM [inhibitor, single point].

With `CCCOc1ccc(-c2c(C(=O)N/N=C/c3cccs3)nnn2-c2nonc2N)cc1` as the compound, how does the max response, negative = inhibition read?
The max response, negative = inhibition was inactive: 1.54%.

`CCOC(=O)C1(CC)CC(CSc2nc3ccccc3[nH]2)OC1=O` (stereo not given) was tested. Which max response, negative = inhibition did it give?
The max response, negative = inhibition was inactive: 2.25%.

`Cc1cc2c3ccccc3ncn2n1` was tested. Which max response, negative = inhibition did it give?
The max response, negative = inhibition was inactive: -1.2%.

For `Cc1ccc(NC(=O)CN2CCN(C)CC2)cc1S(=O)(=O)N1CCOCC1`, which max response, negative = inhibition is on record?
Its max response, negative = inhibition is inactive: -5.47%.

Which Potency does the source give for `Cc1cc(OC(=O)c2ccccc2Cl)cc(=O)n1C` here?
Its Potency is active: 26.7 µM.

With `COc1ccc(N(C(=O)c2ccco2)C(C(=O)NC2CCCC2)c2cccs2)cc1OC` (stereo not given) as the compound, how does the Potency read?
Its Potency is inconclusive: 26.7 µM [inhibitor, partial curve].

How did the Potency turn out when `Cc1oc2cc([N+](=O)[O-])c(O)c([N+](=O)[O-])c2c1C(=O)c1ccc(Br)cc1` was run?
The Potency was inconclusive: 33.6 µM [inhibitor, single point].

With `COc1ccc(Cc2nc(=S)[nH][nH]2)cc1Br` as the compound, how does the Potency read?
Its Potency is inconclusive: 23.8 µM [inhibitor, partial curve].

For `CC1CCN(C(=O)C2CCN(S(=O)(=O)c3cc(Cl)ccc3Cl)CC2)CC1`, which max response, negative = inhibition is on record?
The max response, negative = inhibition was inactive: -1.08%.

With `CCc1cc2c(SCC(=O)Nc3cc(C)on3)ncnc2s1` as the compound, how does the max response, negative = inhibition read?
Its max response, negative = inhibition is inactive: -5.36%.

Which Potency does the source give for `CCNc1cccc2c1C(=O)N(C)C2=O` here?
The Potency was active: 23.8 µM.

For `CCn1nnnc1SCC(=O)Nc1cccc(C)n1`, which Potency is on record?
Its Potency is inconclusive: 37.7 µM [inhibitor, single point].

For `Cn1c(N)c(C(=O)CSc2nc(C3CC3)n(-c3ccccc3)n2)c(=O)[nH]c1=O`, which max response, negative = inhibition is on record?
The max response, negative = inhibition was inactive: -0.487%.

How did the Potency turn out when `O=C(/C=C/c1cccc([N+](=O)[O-])c1)N1CCN(S(=O)(=O)c2cccs2)CC1` was run?
The Potency was inconclusive: 18.9 µM [inhibitor, partial curve].

`CCN(CC(=O)Nc1ccc2c(c1)OCCO2)C(=O)c1ccccc1Br` was tested. Which max response, negative = inhibition did it give?
Its max response, negative = inhibition is inactive: 2.52%.

With `O=C(O)c1cccc(-n2cccc2/C=C2/SC(=O)N(CC(=O)N3CCCC3)C2=O)c1` as the compound, how does the Potency read?
The Potency was inconclusive: 23.8 µM [inhibitor, single point].
